The test deals with Flag-tagged SIRT1 (UniProt Q96EB6). The test is described as follows: co-IP; hiPSC-CMs transfected with Flag-tagged SIRT1 and myc-tagged USP22 and sh-NC or sh-circ-SIRT1#1; lysate precipitated with anti-Flag plus A/G sepharose beads overnight at 4 °C; western blot for myc.

The chains behind the UniProt entries cited, without tags or fusion partners.
UniProt Q96EB6: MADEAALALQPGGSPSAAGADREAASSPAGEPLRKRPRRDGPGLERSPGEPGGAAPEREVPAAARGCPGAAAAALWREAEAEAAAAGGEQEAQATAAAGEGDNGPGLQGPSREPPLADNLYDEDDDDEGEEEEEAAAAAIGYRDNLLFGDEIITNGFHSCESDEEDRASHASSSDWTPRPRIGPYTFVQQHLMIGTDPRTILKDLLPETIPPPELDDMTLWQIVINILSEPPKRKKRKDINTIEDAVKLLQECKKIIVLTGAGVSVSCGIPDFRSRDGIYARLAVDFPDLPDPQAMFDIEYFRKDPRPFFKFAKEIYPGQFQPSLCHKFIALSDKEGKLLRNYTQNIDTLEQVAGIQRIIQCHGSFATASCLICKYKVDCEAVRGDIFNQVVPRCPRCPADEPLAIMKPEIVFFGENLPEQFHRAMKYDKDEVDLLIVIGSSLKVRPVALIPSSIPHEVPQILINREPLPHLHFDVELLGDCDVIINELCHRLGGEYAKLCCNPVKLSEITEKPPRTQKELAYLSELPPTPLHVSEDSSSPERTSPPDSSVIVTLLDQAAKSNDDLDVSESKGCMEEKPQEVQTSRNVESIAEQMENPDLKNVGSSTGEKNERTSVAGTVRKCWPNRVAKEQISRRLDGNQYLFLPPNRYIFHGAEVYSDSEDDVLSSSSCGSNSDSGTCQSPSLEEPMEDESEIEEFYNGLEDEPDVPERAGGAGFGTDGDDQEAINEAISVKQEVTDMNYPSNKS

These are yes or no findings as the source states them, for the method shown. In cells and extracts the contact can be indirect. Some results given as binding are weak or reduced against the parent protein; the word gives no strength. Sequences can lack the tags named with a protein.

B1: myc-tagged USP22 (enzyme, UniProt Q9UPT9 1-525)
chain: MVSRPEPEGEAMDAELAVAPPGCSHLGSFKVDNWKQNLRAIYQCFVWSGTAEARKRKAKSCICHVCGVHLNRLHSCLYCVFFGCFTKKHIHEHAKAKRHNLAIDLMYGGIYCFLCQDYIYDKDMEIIAKEEQRKAWKMQGVGEKFSTWEPTKRELELLKHNPKRRKITSNCTIGLRGLINLGNTCFMNCIVQALTHTPLLRDFFLSDRHRCEMQSPSSCLVCEMSSLFQEFYSGHRSPHIPYKLLHLVWTHARHLAGYEQQDAHEFLIAALDVLHRHCKGDDNGKKANNPNHCNCIIDQIFTGGLQSDVTCQVCHGVSTTIDPFWDISLDLPGSSTPFWPLSPGSEGNVVNGESHVSGTTTLTDCLRRFTRPEHLGSSAKIKCSGCHSYQESTKQLTMKKLPIVACFHLKRFEHSAKLRRKITTYVSFPLELDMTPFMASSKESRMNGQYQQPTDSLNNDNKYSLFAVVNHQGTLESGHYTSFIRQHKDQWFKCDDAIITKASIKDVLDSEGYLLFYHKQFLEYE
With B1, the binding result is “binds”.

Source of the values: publication PMC8580993.
